# Results published in PubChem BioAssay AID328 (DTP/NCI, 2004).
# The list does not hold the whole screen: it is rich in T/C values a quarter to a half above the control, in often repeated tests (any T/C) and in doses without a T/C. Other doses and runs of a compound stand elsewhere. T/C: endpoint of the treated group in % of that of the vehicle group. Some entries give survivors of the animals treated and no T/C: the source files T/C as zero there, which appears to mark a toxic dose or a test without result, not a measured value. Some survivor counts are full or nearly so, which does not show that the dose was tolerated: the source hardly ever lists a survival T/C far under the control, and the zero likely stands for such cases as well. Survivors were counted at the toxicity check, usually on the fifth day, unless a day is given; later deaths do not show. Schedules are NCI's codes, taken here to give the interval after Q, in days (D) or hours (H), and the number of doses after X. Some entries were tested several times; their values stand side by side, smallest first. Marks such as (2×) stand for listed records that agree. For survival time, the PubChem record calls one and a half times the control and up active, and a quarter to a half above the control has no call in these data; cut-offs in other NCI protocols can differ. Some T/C values are followed by the survivors on the day toxicity was checked, most often the fifth; without a count, all were alive then.
# Test system: BDF1 mice, P388 leukemia ip, median survival T/C
# Experiment: NCI In Vivo Anticancer Drug Screen. Data for tumor model P388 Leukemia (intraperitoneal) in B6D2F1 (BDF1) mice
# Details: T/C endpoint: median survival time, higher T/C = longer survival
# Outline: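 Steps: implant the tumour, treat one group with compound and another with vehicle, record survival, then divide treated by control.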
# [1] = dose: 400.0 mg/kg/injection, schedule: Q04DX003 (ip), vehicle: saline
# [2] = dose: 100.0 mg/kg/injection, schedule: Q01DX009 (ip), vehicle: water
# [3] = dose: 200.0 mg/kg/injection, schedule: Q04DX003 (ip), vehicle: water
# [4] = dose: 25.0 mg/kg/injection, schedule: Q04DX003 (ip), vehicle: saline
# [5] = dose: 37.5 mg/kg/injection, schedule: Q04DX003 (ip), vehicle: saline
# [6] = dose: 200.0 mg/kg/injection, schedule: Q01DX009 (ip), vehicle: saline with Tween-80
# [7] = dose: 400.0 mg/kg/injection, schedule: Q01DX009 (ip), vehicle: saline with Tween-80
# [8] = dose: 200.0 mg/kg/injection, schedule: Q04DX003 (ip), vehicle: saline with Tween-80
# [9] = dose: 400.0 mg/kg/injection, schedule: Q04DX003 (ip), vehicle: saline with Tween-80
# [10] = dose: 100.0 mg/kg/injection, schedule: Q04DX003 (ip), vehicle: saline
compound,measurement,setting,value
CC(=O)OCc1cc2ccccc2nc1C,survivor count,"dose: 100.0 mg/kg/injection, schedule: Q01DX009 (ip), vehicle: saline with Tween-80",6 of 6
O=S1(=O)CC(O)C(Cl)C1 (stereo not drawn),survivor count,"dose: 400.0 mg/kg/injection, schedule: Q01DX001 (ip), vehicle: saline",3 of 6
OCC12CCCCC1CC1(CC2)OCCO1 (stereo not drawn),survivor count,"dose: 200.0 mg/kg/injection, schedule: Q01DX009 (ip), vehicle: saline",6 of 6
CS(=O)(=O)OCCCOS(C)(=O)=O,survivor count,"dose: 200.0 mg/kg/injection, schedule: Q01DX009 (ip), vehicle: Klucel (hydroxypropylcellulose) (HPC)",6 of 6
same,survivor count,[1],4 of 6
CC(=O)OC1=CCC(C(C)(C)C)CC1 (stereo not drawn),survivor count,"dose: 55.0 mg/kg/injection, schedule: Q01DX009 (ip), vehicle: Klucel (hydroxypropylcellulose) (HPC)",6 of 6
same,survivor count,"dose: 80.0 mg/kg/injection, schedule: Q01DX009 (ip), vehicle: Klucel (hydroxypropylcellulose) (HPC)",0 of 6
same,survivor count,"dose: 82.5 mg/kg/injection, schedule: Q04DX003 (ip), vehicle: Klucel (hydroxypropylcellulose) (HPC)",2 of 6
same,survivor count,"dose: 165.0 mg/kg/injection, schedule: Q04DX003 (ip), vehicle: Klucel (hydroxypropylcellulose) (HPC)",0 of 6
CC(C)(C)CC(=O)OCCC[N+](C)(C)C,survivor count,[2],2 of 4
NN=C1CCC(=NN)CC1,T/C,"dose: 25.0 mg/kg/injection, schedule: Q01DX009 (ip), vehicle: water",134 % of control
same,survivor count,[2],4 of 6 and 6 of 6 (2×)
same,T/C,"dose: 100.0 mg/kg/injection, schedule: Q04DX003 (ip), vehicle: water",129 % of control
same,survivor count,[3],3 of 6
CSc1cccc(NC(=O)Oc2ccc([N+](=O)[O-])cc2Cl)c1,survivor count,"dose: 25.0 mg/kg/injection, schedule: Q01DX009 (ip), vehicle: DMSO",6 of 6
CC1=C(C)CC2C(=O)C=CC(=O)C2C1 (stereo not drawn),survivor count,"dose: 200.0 mg/kg/injection, schedule: Q01DX009 (ip), vehicle: water",5 of 6
same,survivor count,[3],6 of 6
same,survivor count,"dose: 400.0 mg/kg/injection, schedule: Q04DX003 (ip), vehicle: water",0 of 6
CN(C)c1ccc2nc3ccc(=[N+](C)C)cc-3sc2c1,T/C,"dose: 25.0 mg/kg/injection, schedule: Q01DX009 (ip), vehicle: saline",125 % of control
same,T/C,[4],109 (2×) and 159 % of control
same,survivor count,"dose: 37.5 mg/kg/injection, schedule: Q01DX009 (ip), vehicle: saline",2 of 6
same,T/C,[5],136 % of control
same,survivor count,[5],6 of 6
same,survivor count,"dose: 40.0 mg/kg/injection, schedule: Q01DX009 (ip), vehicle: saline",5 of 6
same,survivor count,"dose: 50.0 mg/kg/injection, schedule: Q01DX009 (ip), vehicle: saline",1 of 6
CC(=O)OCc1c(COC(C)=O)c(-c2ccccc2)n2c1CCC2,T/C,"dose: 12.5 mg/kg/injection, schedule: Q01DX009 (ip), vehicle: Klucel (hydroxypropylcellulose) (HPC)",126 % of control
same,T/C,"dose: 25.0 mg/kg/injection, schedule: Q01DX009 (ip), vehicle: Klucel (hydroxypropylcellulose) (HPC)",133 % of control
CCC1OCC(C(Cl)CCl)O1 (stereo not drawn),T/C,[6],136 % of control
same,survivor count,[7],0 of 6
CC(C)(C)c1ccc(/C(N)=N/O)cc1,survivor count,"dose: 200.0 mg/kg/injection, schedule: Q01DX005 (ip), vehicle: saline with Tween-80",0 of 5
CCCCCCCCCCCCCCCC[N+]1(CC)CCCC1,survivor count,"dose: 0.78 mg/kg/injection, schedule: Q01DX009 (ip), vehicle: saline",3 of 6
same,survivor count,"dose: 1.56 mg/kg/injection, schedule: Q01DX009 (ip), vehicle: saline",2 of 6
same,survivor count,"dose: 3.12 mg/kg/injection, schedule: Q01DX009 (ip), vehicle: saline",2 of 6
Nc1ncnc2c1ncn2C1CCCO1 (stereo not drawn),survivor count,[1],4 of 6
C[N-]N(C)C(=O)[S-].C[N-]N(C)C(=O)[S-].C[N-]N(C)C(=O)[S-].[Co],survivor count,[8],1 of 6
same,survivor count,[9],0 of 6
OCc1cc(Cl)ccc1O,T/C,"dose: 200.0 mg/kg/injection, schedule: Q04DX003 (ip), vehicle: other",127 and 133 % of control
Cc1nc(N)c(N)nc1C,survivor count,"dose: 75.0 mg/kg/injection, schedule: Q01DX009 (ip), vehicle: saline with Tween-80",5 of 6
same,survivor count,"dose: 100.0 mg/kg/injection, schedule: Q04DX003 (ip), vehicle: saline with Tween-80",3 of 6
same,survivor count,[8],0 of 6
CC(C)(C)C([NH-])=O.CC(C)(C)C([NH-])=O.[Cl][Pt+2][Cl],survivor count,[10],3 of 6
[I][Hg][CH2]C1COC([CH2][Hg][I])CO1 (stereo not drawn),T/C,"dose: 6.25 mg/kg/injection, schedule: Q01DX010 (ip), vehicle: saline",131 % of control [5 of 6 alive]
CC1(C)N=C(N)N=C(N)N1c1ccc(CCCCc2ccc(Cl)c(S(=O)(=O)F)c2)c(Cl)c1,T/C,"dose: 2.0 mg/kg/injection, schedule: Q01DX009 (ip), vehicle: saline",131 % of control
same,T/C,"dose: 3.0 mg/kg/injection, schedule: Q01DX009 (ip), vehicle: saline",127 % of control
same,T/C,"dose: 5.56 mg/kg/injection, schedule: Q04DX003 (ip), vehicle: saline",128 % of control
same,T/C,"dose: 8.0 mg/kg/injection, schedule: Q01DX009 (ip), vehicle: saline",145 % of control
same,T/C,"dose: 12.5 mg/kg/injection, schedule: Q01DX009 (ip), vehicle: saline",137 % of control
same,T/C,"dose: 12.5 mg/kg/injection, schedule: Q04DX003 (ip), vehicle: saline",139 % of control
same,T/C,"dose: 18.7 mg/kg/injection, schedule: Q04DX003 (ip), vehicle: saline",148 % of control
same,T/C,[4],127 % of control
same,T/C,[10],127 % of control
COc1ccccc1N1C(=O)CC(Sc2ccccc2N)C1=O (stereo not drawn),T/C,[6],133 % of control
CN(C)c1ccc(C(=O)NN)cc1,survivor count,[9],4 of 6
N=c1ccn(C(=O)C2=Cc3ccccc3OC2)cc1,survivor count,"dose: 10.0 mg/kg/injection, schedule: Q01DX009 (ip), vehicle: saline with Tween-80",6 of 6
same,survivor count,"dose: 20.0 mg/kg/injection, schedule: Q01DX009 (ip), vehicle: saline with Tween-80",6 of 6
O=CC(/C=N\Nc1ccccc1)=N/Nc1ccccc1,survivor count,"dose: 40.0 mg/kg/injection, schedule: Q01DX009 (ip), vehicle: saline with Tween-80",6 of 7
CCC(=O)OCC1OC(n2cnc3c(=S)nc(N)[nH]c32)C(OC(=O)CC)C1OC(=O)CC (stereo not drawn),T/C,"dose: 16.5 mg/kg/injection, schedule: Q04DX003 (ip), vehicle: saline + alcohol",125 % of control
same,T/C,"dose: 25.0 mg/kg/injection, schedule: Q04DX003 (ip), vehicle: Klucel (hydroxypropylcellulose) (HPC)",131 % of control
same,T/C,"dose: 25.0 mg/kg/injection, schedule: Q04DX003 (ip), vehicle: saline + alcohol",141 % of control
same,T/C,"dose: 37.5 mg/kg/injection, schedule: Q04DX003 (ip), vehicle: Klucel (hydroxypropylcellulose) (HPC)",136 % of control
same,T/C,"dose: 37.5 mg/kg/injection, schedule: Q04DX003 (ip), vehicle: saline + alcohol",125 % of control
same,T/C,"dose: 50.0 mg/kg/injection, schedule: Q04DX003 (ip), vehicle: Klucel (hydroxypropylcellulose) (HPC)",134 % of control
same,survivor count,"dose: 100.0 mg/kg/injection, schedule: Q01DX009 (ip), vehicle: Klucel (hydroxypropylcellulose) (HPC)",5 of 6
same,survivor count,"dose: 200.0 mg/kg/injection, schedule: Q04DX003 (ip), vehicle: Klucel (hydroxypropylcellulose) (HPC)",6 of 6
same,survivor count,"dose: 400.0 mg/kg/injection, schedule: Q04DX003 (ip), vehicle: Klucel (hydroxypropylcellulose) (HPC)",6 of 6
CN1CSC(=S)N(Cc2ccccc2)C1,survivor count,[6],6 of 6
same,survivor count,[7],6 of 6
Nc1nc(N)c2nc(CNc3ccc(C(=O)NC(CCC(=O)O)C(=O)O)cc3)cnc2n1 (stereo not drawn),T/C,"dose: 0.1 mg/kg/injection, schedule: Q01DX010 (ip), vehicle: other",130 % of control
